Data from patent publication US20090048324A1.
Positions count from the first letter of the chain named. In names and notes the source's numbering stands. Results are given in words; binding and its absence hold for the method and conditions named. Some results given as binding are weak or reduced against the parent protein; the word gives no strength. Values belong to the binder of their own block, whether it stands above or below them.

Legend:
[1] = biological target: pea (Pisum sativum) porphobilinogen synthase (Pisum sativum (pea)) (UniProt P30124); assay: native PAGE, first dimension, Coomassie stained
[2] = biological target: pea (Pisum sativum) porphobilinogen synthase (Pisum sativum (pea)) (UniProt P30124); assay: native gel electrophoresis of pea PBGS with rising EDTA
[3] = biological target: pea (Pisum sativum) porphobilinogen synthase (Pisum sativum (pea)) (UniProt P30124); assay: two-dimensional native PAGE, no incubation between the dimensions
[4] = biological target: pea (Pisum sativum) porphobilinogen synthase (Pisum sativum (pea)) (UniProt P30124); assay: two-dimensional native PAGE, gel incubated in 0.1 M BTP pH 8.5, 37 C, 20 min between the dimensions
[5] = biological target: pea (Pisum sativum) porphobilinogen synthase (Pisum sativum (pea)) (UniProt P30124); assay: native PAGE (12.5% PhastGel) of pea PBGS at 1 mg/mL after 30 min with morphlock-1 (small molecule)
[6] = biological target: pea (Pisum sativum) porphobilinogen synthase (Pisum sativum (pea)) (UniProt P30124); assay: two-dimensional native PAGE, gel incubated with 10 mM ALA and 10 mM Mg2+ at 37 C for 20 min between the dimensions
[7] = biological target: pea PBGS variant C326A (Pisum sativum (pea)) (UniProt P30124); assay: native gel electrophoresis
[8] = biological target: pea PBGS variant C326A (Pisum sativum (pea)) (UniProt P30124); assay: native gel electrophoresis (12.5% acrylamide) of pea PBGS C326A

binding [1]: binds
binding [2]: binds
binding [3]: binds
binding [4]: binds
binding [5]: binds
binding [6]: binds
B1: pea (Pisum sativum) porphobilinogen synthase (enzyme, Pisum sativum (pea), UniProt P30124 69-398, looked up)
chain: SLPIQRRPRRNRRSPALRSAFQETTLSPANFVYPLFIHEGEEDTPIGAMPGCYRLGWRHGLLEEVAKARDVGVNSVVLFPKIPDALKTPTGDEAYNEDGLVPRSIRLLKDKYPDLIIYTDVALDPYSSDGHDGIVREDGVIMNDETVHQLCKQAVAQARAGADVVSPSDMMDGRVGAMRVALDAEGFQHVSIMSYTAKYASSFYGPFREALDSNPRFGDKKTYQMNPANYREALTEMREDESEGADILLVKPGLPYLDIIRLLRDNSPLPIAAYQVSGEYSMIKAGGALKMIDEEKVMMESLLCLRRAGADIILTYFALQAARTLCGEKR

binding [7]: binds
binding [8]: binds
B2: pea PBGS variant C326A (enzyme, Pisum sativum (pea), UniProt P30124 69-398, looked up)
chain: B1 chain with C326A
